The source of these data is PubChem BioAssay AID2685 (National Center for Advancing Translational Sciences (NCATS), 2010).

The term AC50 denotes the concentration giving half of the maximal activity seen. A high value points to activity only at high concentration.

This is one part of the list. The main result of the screen is listed elsewhere. These columns were measured beside it and carry no call. The list favours compounds with an active or inconclusive main result. Words in brackets tell the shape of the fitted curve; partial curves, single points and poor fits give uncertain potencies.

This assay is described as follows: qHTS Assay for Lipid Storage Modulators in Drosophila S3 Cells.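 As to cell number change: cells counted by Cell Tracker Red CMTPX staining in the red channel.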 As to conditions: BODIPY lipid droplet fluorescence, 18-24 h; for cell number change: measured here: cell count max response, cells fed with added oleic acid. The procedure, abridged:
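Drosophila S3 cells got compounds at several concentrations plus oleic acid (400 uM solution). Laser-scanning cytometry with 488 nm excitation read lipid droplets at 500-530 nm and cells at 575-640 nm. Percent activity was relative to 20 uM Triacsin C.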
In general terms: Quantitative high-throughput screening tests each substance at several concentrations.

Where [1] appears, read: measured here: lipid fluorescence (Fed channel) AC50, cells fed with added oleic acid.
[2] abbreviates: measured here: cell number channel AC50, cells fed with added oleic acid.

For the compound `Cc1ccc(N(Cc2cc(=O)[nH]c3ccccc23)C(=O)CCl)c(C)c1`, the cell number change was -20.8%. Further, the concentration at half-maximal activity (AC50) under setting [1] is 29.1 µM [rising, single point].
Consider `COC(=O)c1ccc(-n2cnc3ccccc32)nc1`, for which the cell number change was 2.76%.
Regarding `O=c1[nH]c(=S)[nH]cc1Oc1ccc(Cl)cc1Cl`, the cell number change is -9.35%.
In the case of `COc1ccc(-c2cc([C@H]3[C@H]4C=CC[C@@H](C)[C@@H]4C(=O)N3Cc3ccccc3)ccc2F)cc1`, the cell number change is -0.655%. The AC50 under setting [1] was 0.651 µM [rising, partial curve, poor fit].
In the case of `Cc1ccc(NC(=O)COc2coc(CN3CCN(Cc4ccccc4)CC3)cc2=O)cc1`, the cell number change is -50%. In addition, the half-maximal activity concentration (AC50) under setting [2] was 16.4 µM [falling, single point].
As for `CCOC(=O)C1(Cc2ccccc2C)CCCN(C(=O)c2cc(CC)nn2C)C1` (centres undefined), the cell number change was 2.76%. Moreover, the half-maximal activity concentration (AC50) under setting [1] is 0.92 µM [falling, full curve, poor fit].
Turning to `CC1CCCN(C(=O)c2ccc(OC3CCN(CCc4ccccc4)CC3)cc2)C1` (centres undefined), the cell number change worked out at 44.9%. The concentration at half-maximal activity (AC50) under setting [2] was 20.6 µM [rising, partial curve, poor fit]. For the same compound, the half-maximal activity concentration (AC50) under setting [1] is 23.1 µM [rising, single point].
As to `COc1ccc(C(C(=O)NC2CCCC2)N(C(=O)c2ccco2)c2cccc(C(C)=O)c2)cc1OC` (centres undefined), the cell number change is 7.69%.
On the same count and under the same terms, the value for `CCC(=O)C1CCCN(C(=O)c2ccc(OC)c(OC3CCN(C(C)=O)CC3)c2)C1` (centres undefined) was 9.41%.
Regarding `O=C(COC(=O)/C=C/c1cccc(Br)c1)NCCC1=CCCCC1`, the cell number change is -24.8%. For the same compound, under setting [2], the concentration at half-maximal activity (AC50) was 0.058 µM [falling, full curve, poor fit].
Consider `C=CCN(CC=C)C(=O)C1CCN(S(=O)(=O)c2ccc(N3CCCC3=O)cc2)CC1`, for which the cell number change is -21.5%.
In the case of `O=[N+]([O-])c1cccc(NC(=S)N2CCCC2)c1`, the cell number change is 6.07%. Further, under setting [1], the AC50 is 29.1 µM [rising, single point].
For `CCCCNC(=O)c1ccccc1C(=O)NCCCC`, the cell number change was -5.34%. For the same compound, under setting [1], the concentration at half-maximal activity (AC50) was 29.1 µM [falling, partial curve, poor fit].
For `CCc1cccc(OCC(=O)Nc2ccc(S(=O)(=O)N3CCCC3)cc2)c1`, the cell number change was -10.9%. Moreover, under setting [1], the concentration at half-maximal activity (AC50) is 8.2 µM [falling, partial curve].
As for `CCn1c(=O)c(C(=O)NCc2ccc(Cl)cc2)c(O)c2ccccc21`, the cell number change was -10.2%.
Take `Cc1cc(C)c2c(=O)n(CC(=O)NCCCN3CCOCC3)sc2n1`: the cell number change is -160%. In addition, the concentration at half-maximal activity (AC50) under setting [2] is 29.1 µM [falling, single point]. In addition, the concentration at half-maximal activity (AC50) under setting [1] is 29.1 µM [falling, single point].
With `COc1ccc(CCNC(=O)C2CCCN(S(=O)(=O)c3cnc[nH]3)C2)cc1OC` (centres undefined), the cell number change turned out to be 3.56%.
As to `CC(=O)N1CCN(S(=O)(=O)c2ccccc2)C1c1ccccc1` (centres undefined), the cell number change was -10.2%. Under setting [1], the AC50 is 0.58 µM [falling, single point].
For `Cc1ccc(C2=Nc3ccccc3N(C(=O)c3ccccc3)C(C)C2)cc1` (centres undefined), the cell number change was 12.9%.
For `COc1ccc(COC(=O)C2CC(=O)N(Cc3ccccc3)C2)cc1` (centres undefined), the cell number change amounted to 21.1%. Besides, the half-maximal activity concentration (AC50) under setting [1] was 0.00651 µM [rising, full curve, poor fit].
Take `O=C(NC1CCCCC1)N(CCN1CCOCC1)Cc1cc2cc3c(cc2[nH]c1=O)OCCO3`: the cell number change came to 3.09%.
Turning to `Cc1cccc(C)c1N(CC(O)Cn1c2ccccc2c2ccccc21)S(C)(=O)=O` (centres undefined), the cell number change is -70%. Further, the AC50 under setting [2] is 32.6 µM [falling, single point]. In addition, the AC50 under setting [1] is 1.46 µM [rising, partial curve].
For `CCOC(=O)c1c(C2COc3ccccc3O2)csc1N` (centres undefined), the cell number change is -33.5%. Also, the half-maximal activity concentration (AC50) under setting [2] was 29.1 µM [falling, single point]. In addition, the AC50 under setting [1] is 29.1 µM [falling, single point].
`CCCOc1ccc(CC(CC(=O)O)(C(=O)O)C(=O)O)cc1`: the cell number change is -6.82%. Besides, the AC50 under setting [1] is 0.517 µM [falling, full curve, poor fit].
Regarding `O=C(O)CCC(=O)Nc1ccc(Cc2ccc(NC(=O)CCC(=O)O)cc2)cc1`, the cell number change is -0.563%. In addition, under setting [1], the AC50 is 0.0731 µM [falling, full curve, poor fit].
With `COc1ccc(NC(=O)CCNS(=O)(=O)c2cccc3nonc23)c(OC)c1`, the half-maximal activity concentration (AC50) under setting [1] was 0.731 µM [falling, full curve, poor fit].
On to `C/C(=N\NC(=O)c1nnn(-c2nonc2N)c1-c1ccc2c(c1)OCO2)c1cccs1`, for which the cell number change came to 35.1%. Further, under setting [2], the concentration at half-maximal activity (AC50) was 29.1 µM [rising, single point]. The AC50 under setting [1] was 29.1 µM [rising, single point].
For the compound `O=c1cc(CN2CCN(c3cccc(Cl)c3)CC2)c2cc3c(cc2o1)CCCC3`, the cell number change was 30.8%. For the same compound, the half-maximal activity concentration (AC50) under setting [2] was 1.84 µM [rising, partial curve, poor fit]. Also, under setting [1], the AC50 was 2.06 µM [rising, partial curve].
Take `CCCOc1ccc(/C(O)=C2/C(=O)C(=O)N(CCN(C)C)C2c2ccco2)cc1` (centres undefined): the cell number change was -156%. Moreover, the concentration at half-maximal activity (AC50) under setting [2] is 29.1 µM [falling, single point]. Moreover, the AC50 under setting [1] is 0.13 µM [falling, full curve, poor fit].
For the compound `Cc1cc(C)cc(NC(=O)CN2CCc3cc4c(cc3C2C)OCCCO4)c1` (centres undefined), the cell number change was -2.99%. Under setting [1], the concentration at half-maximal activity (AC50) was 0.231 µM [rising, partial curve, poor fit].
With `CCC(=O)NC(=S)Nc1ccc(S(=O)(=O)NC2CCCCC2)cc1`, the cell number change was -7.8%. Moreover, the concentration at half-maximal activity (AC50) under setting [1] is 0.411 µM [rising, single point].
Regarding `O=C1CC(c2cccc(Cl)c2)Cc2nc(N3CCN(c4ccccc4)CC3)ncc21` (centres undefined), the AC50 under setting [2] was 2.06 µM [rising, partial curve] and the concentration at half-maximal activity (AC50) under setting [1] is 0.731 µM [rising, single point].
In the case of `COc1ccc(C(=O)Nc2ccc(C3=NNC(=O)CC3C)cc2NC(=O)c2ccc(OC)cc2)cc1` (centres undefined), the cell number change is 8.83%. The concentration at half-maximal activity (AC50) under setting [2] was 0.731 µM [falling, single point].
In the case of `CC(=O)C1=C(O)C(=O)N(CO)C1c1ccccc1F` (centres undefined), the cell number change was -53.1%. For the same compound, under setting [2], the concentration at half-maximal activity (AC50) was 2.91 µM [falling, partial curve, poor fit].
In the case of `O=C(CSc1nc(NS(=O)(=O)c2ccccc2)cc(=O)[nH]1)Nc1ccccc1Cl`, the cell number change is 4.44%.
`C=CCNC(=O)COC(=O)c1ccc(Sc2nncn2C)c([N+](=O)[O-])c1`: the cell number change was 33.5%. Under setting [2], the concentration at half-maximal activity (AC50) was 29.1 µM [rising, single point]. Further, the half-maximal activity concentration (AC50) under setting [1] is 20.6 µM [rising, single point].
With `O=C(/C=C/c1ccccc1[N+](=O)[O-])N1CCN(c2ccc(F)cc2)CC1`, the cell number change was -30.8%. In addition, the half-maximal activity concentration (AC50) under setting [2] was 29.1 µM [falling, single point]. In addition, the AC50 under setting [1] was 29.1 µM [falling, single point].
For the compound `Cc1c(=O)n(OCc2ccccn2)c2ccccc2[n+]1[O-]`, the cell number change was 77.8%. Moreover, under setting [2], the AC50 was 18.4 µM [rising, single point]. Further, the AC50 under setting [1] is 25.9 µM [rising, partial curve].
For `Cc1ccccc1NC(=O)CC1S/C(=N/c2nccs2)N(C)C1=O` (centres undefined), the AC50 reads like this: under setting [2], 1.03 µM [rising, partial curve]; under setting [1], 2.31 µM [rising, full curve, poor fit].
In the case of `CCCCn1c(N)c(N(CCOC)C(=O)C2CCN(C(=O)c3ccc(F)cc3)CC2)c(=O)[nH]c1=O`, the cell number change is -14.1%. Under setting [1], the half-maximal activity concentration (AC50) is 29.1 µM [falling, single point].
As for `Cn1ccc(NC(=O)Nc2ccc(Cl)cc2Cl)n1`, the cell number change is -12.4%. Besides, under setting [1], the concentration at half-maximal activity (AC50) was 0.92 µM [rising, full curve, poor fit].
For `O=C(CSc1nc2ccccc2[nH]1)NC(=O)NCc1ccco1`, the cell number change is 43%. The concentration at half-maximal activity (AC50) under setting [2] is 4.11 µM [rising, full curve, poor fit].
For the compound `CCC(Sc1ccc2nnc(-c3ccc(OC)c(OC)c3)n2n1)C(=O)O` (centres undefined), the cell number change was found to be 1.04%. In addition, the AC50 under setting [2] was 1.46 µM [falling, partial curve]. The half-maximal activity concentration (AC50) under setting [1] was 6.51 µM [falling, single point].
In the case of `Cc1ccc2c(c1)c1c3n2CCN(C=O)C3CCC1` (centres undefined), the cell number change was determined as 17%. Moreover, the half-maximal activity concentration (AC50) under setting [1] was 29.1 µM [rising, single point].
Regarding `CO/N=C(/CS(=O)Cc1ccc(Cl)cc1)c1ccc(Cl)cc1` (centres undefined), the half-maximal activity concentration (AC50) under setting [1] was 6.51 µM [rising, single point].
As to `COc1ccc(S(=O)(=O)N2CCc3ccccc32)cc1C(=O)N1CCN(C=O)CC1`, the cell number change is -2.85%. The AC50 under setting [1] was 6.51 µM [falling, single point].
With `CCCCNC(=O)O[C@@H]1C[C@H]2CCCC(=O)N3CC[C@@H](C1)[C@@H]23`, the cell number change came to 12.3%.
Consider `CCOC(=O)/C=C1\SCC(=O)N1CC(=O)NC(C)c1ccccc1` (centres undefined), for which the cell number change stood at 6.51%.
Take `Cn1c(=O)[nH]c(=O)c2c1nc(N1CCCCCC1)n2CCCSc1nc2ccccc2o1`: the cell number change was -21.2%. Further, the concentration at half-maximal activity (AC50) under setting [1] is 29.1 µM [falling, single point].
For the compound `COc1ccccc1N1CCN(C(=O)c2cc3n(n2)C(C(F)(F)F)CC(c2ccco2)N3)CC1` (centres undefined), the cell number change was 8.1%. Besides, the AC50 under setting [2] is 0.092 µM [rising, full curve, poor fit].
In the case of `O=c1nc(-c2ccccc2)n(-c2ccc(Cl)cc2)[nH]1`, the cell number change was found to be 4.03%. Besides, the concentration at half-maximal activity (AC50) under setting [2] is 6.51 µM [rising, single point]. Under setting [1], the AC50 was 32.6 µM [rising, single point].
For `Cc1cccc(CS(=O)(=O)Cc2ccc(C(=O)NCCN3CCCCC3C)o2)c1` (centres undefined), the cell number change was determined as 15.1%.
For `COc1ccc(/C(C)=N/N2CCCCC2)c(O)c1`, the cell number change was -9.01%.
`Cc1c(C)[n+](=O)c2c(n1[O-])CCC2`: the cell number change is -8.8%. For the same compound, the AC50 under setting [2] was 0.366 µM [rising, full curve, poor fit].
`Cc1ccc2nsnc2c1NC(=O)c1ccc([N+](=O)[O-])cc1`: the cell number change was determined as 9.94%.
Take `CCOC(=O)c1c(C)c(C)n(Cc2ccc(OC)c(OC)c2)c1C`: the cell number change worked out at 40.2%. The concentration at half-maximal activity (AC50) under setting [2] is 14.6 µM [rising, single point]. Also, the concentration at half-maximal activity (AC50) under setting [1] is 16.4 µM [rising, single point].
Regarding `COc1ccc(-n2c(=S)[nH]c3cc(C(=O)NCc4ccco4)ccc3c2=O)c(OC)c1`, the cell number change was found to be 65%. Moreover, under setting [2], the half-maximal activity concentration (AC50) was 29.1 µM [rising, single point].
On to `COC(=O)c1nn(-c2ccc(OC)cc2)c(=O)c2c(N)sc(C)c12`, for which the cell number change was 9.54%.
As for `CCOC(=O)C(=O)Nc1ccc(Oc2ccccc2)cc1`, the cell number change stood at 0.805%.
Consider `COc1ccc(S(=O)(=O)N2CCC(C(=O)N[C@H](C(=O)NCc3ccncc3)C(C)C)CC2)cc1`, for which the cell number change was -24.4%. Further, under setting [1], the AC50 is 29.1 µM [falling, single point].
